Binding data for four molecules are collected here from paper doi:10.1101/2023.11.14.567006.

These are yes or no findings as the source states them, for the method shown. A result given as binding can be weak or reduced; the word gives no strength. Tags and fused reporters may be left off the sequences shown.

The target of experiment [1] is T25-SbtB (N-terminal tagged SbtB) (Synechocystis sp. PCC 6803). In words: two-hybrid.
In experiment [2] the target is SbtB-T25 (C-terminal tagged SbtB) (Synechocystis sp. PCC 6803). In words: two-hybrid.

B1: BicA-T18 (C-terminal tagged BicA) (protein, UniProt Q55415 1-564)
chain: MQITNKIHFRNLQGDLFGGVTAAVIALPMALAFGIASGAGATAGLWGAVIVGFFAALFGGTPTLISEPTGPMTVVQTAVIASLVAADPDNGLAMAFTVVMMAGLFQIAFGLLKLGKYVTMMPYTVISGFMSGIGIILVILQLAPFLGQASPKGGVIGTLQALPNLVSNVRPVETLLALMTVGIIWFMPSRWKKFAPPQLVALVLGTIISITLFGDLDIRRIGEIQAGLPALQLPVFQADQLQRMLIDAAVLGMLGCIDALLTSVVADSLTRTEHNSNKELVGQGIGNVMSGLFGGLGGAGATMGTVVNIQSGGRTALSGLIRAMVLLVVILGAAKLAATIPLAVLAGIAFKVGVDIIDWGFLKRAHHVSIKGALIMYAVIVLTVLVDLIAAVGIGVFIANILTIDRMSALQSKAVKSISDADDEILLSANEKRWLDEGNGRVLLFQLSGPMIFGVAKAIAREHNAIQECAAIVFDLSDVPHLGVTASLALENAIEEAAEKGRAVYIVGATGQTKRRLEKLQVFRFVPESNCYDDRSEALKDAVLALGPHESEDSPSSSSVQTTY
On to B1, for which the binding entry in experiment [1] and in experiment [2] was “binds” throughout.

B2: CmpD-T18 (C-terminal tagged CmpD) (protein, UniProt Q55463 1-282)
chain: MQTLKSQRAMPTATPSDQKTTAFLTIENVSKVYPTAKGPYTVLENVNLTVNEGEFICVIGHSGCGKSTLLNMVSGFASPTDGSVQVGGKIITEPGPDRMVVFQNYALLPWLTALENVYIAVDAVHSQKTEAEKRAIAKDHLAMVGLTDSMDKKPGQISGGMKQRVSIARALAIRPEVLILDEPFGALDAITKEELQEELLQIWNDHRCTVLMITHDIDEALFLADRLVMMTNGPHANIGEIMTIPFSRPRDRDRIMEDPTYYQLRNYALDFLYNRFAHDDVA
Take B2: the binding entry in experiment [1] and in experiment [2] was “binds” in each case.

B3: CmpC-T18 (C-terminal tagged CmpC) (protein, UniProt Q55462 1-667)
chain: MSLFVAVDNIDKVFSLTDGGEYIALKGINLEIKKGEFVSLIGHSGCGKSTLLNMIAGLDLPSEGIVTLEGQRIKQPGPDKMVIFQNYSLLPWLTVKQNIALAVDEVMKGASAAERKAIVEEHINLVGLGHAVDKRPGELSGGMKQRVAIARALAIRPKLLLLDEPFGALDALTRGNLQEQLMRICEQYQVTAVMVTHDVDEAVLLSDRIVMLTNGPGSNIGGILEVDIPRPRKRMEVVEHPSYYSLRSEIIYFLNQQKRIKKLRAKKTTAIARHGLEKVNLELGYVPLVACAPLVVAQEKGFFAKHGLDEVSLVRETSWRGIVDGIAGGYLDGAQMPAGMPTWLTAGGYREQSIPVVSALTMTRNGNAITLSKKLYDQGIYTAEDFRQLLLASDGDRHTLGMVHPSSMHNLLLRYWLAAHNINPDRDVHLKTIPPAQMVADLKAGTIDGYCVSEPWNLRASMEGAGFSIATDLEIWQNHPGKVLGVREDWAIAHPNTHVALVKALLEACAYCADPNHEMEIRELLATRQYLSTNIDYIHLGDPEGRTCRLGNPVEYSHHLFFGDQFNRPSRTEHLWMMTQMARWGDIPFPRNWVEILERVCRVGVFSTAARELGYDVNYQRQPIALFDGKVFNADDPIAYLNQTVIHRNFTIAEVHLDNPTPAPVFA
Consider B3, for which the binding result in experiment [1] and in experiment [2] was “binds” in each case.

B4: T18-CmpC (N-terminal tagged CmpC) (protein, UniProt Q55462 1-667)
chain: MSLFVAVDNIDKVFSLTDGGEYIALKGINLEIKKGEFVSLIGHSGCGKSTLLNMIAGLDLPSEGIVTLEGQRIKQPGPDKMVIFQNYSLLPWLTVKQNIALAVDEVMKGASAAERKAIVEEHINLVGLGHAVDKRPGELSGGMKQRVAIARALAIRPKLLLLDEPFGALDALTRGNLQEQLMRICEQYQVTAVMVTHDVDEAVLLSDRIVMLTNGPGSNIGGILEVDIPRPRKRMEVVEHPSYYSLRSEIIYFLNQQKRIKKLRAKKTTAIARHGLEKVNLELGYVPLVACAPLVVAQEKGFFAKHGLDEVSLVRETSWRGIVDGIAGGYLDGAQMPAGMPTWLTAGGYREQSIPVVSALTMTRNGNAITLSKKLYDQGIYTAEDFRQLLLASDGDRHTLGMVHPSSMHNLLLRYWLAAHNINPDRDVHLKTIPPAQMVADLKAGTIDGYCVSEPWNLRASMEGAGFSIATDLEIWQNHPGKVLGVREDWAIAHPNTHVALVKALLEACAYCADPNHEMEIRELLATRQYLSTNIDYIHLGDPEGRTCRLGNPVEYSHHLFFGDQFNRPSRTEHLWMMTQMARWGDIPFPRNWVEILERVCRVGVFSTAARELGYDVNYQRQPIALFDGKVFNADDPIAYLNQTVIHRNFTIAEVHLDNPTPAPVFA
Consider B4, for which the binding result in experiment [1] and in experiment [2] was “binds” throughout.
